Test results from paper PMC5511190.
These are yes or no findings as the source states them, for the method shown. In cells and extracts the contact can be indirect. Some entries that bind do so weakly or less than the wild type.

By UniProt entry, the sequences of proteins in these tests, tags left out. Where a name states a change or a piece, a line headed by the entry shows the natural chain unless it says otherwise. Residues count along the entry.
UniProt Q5S007: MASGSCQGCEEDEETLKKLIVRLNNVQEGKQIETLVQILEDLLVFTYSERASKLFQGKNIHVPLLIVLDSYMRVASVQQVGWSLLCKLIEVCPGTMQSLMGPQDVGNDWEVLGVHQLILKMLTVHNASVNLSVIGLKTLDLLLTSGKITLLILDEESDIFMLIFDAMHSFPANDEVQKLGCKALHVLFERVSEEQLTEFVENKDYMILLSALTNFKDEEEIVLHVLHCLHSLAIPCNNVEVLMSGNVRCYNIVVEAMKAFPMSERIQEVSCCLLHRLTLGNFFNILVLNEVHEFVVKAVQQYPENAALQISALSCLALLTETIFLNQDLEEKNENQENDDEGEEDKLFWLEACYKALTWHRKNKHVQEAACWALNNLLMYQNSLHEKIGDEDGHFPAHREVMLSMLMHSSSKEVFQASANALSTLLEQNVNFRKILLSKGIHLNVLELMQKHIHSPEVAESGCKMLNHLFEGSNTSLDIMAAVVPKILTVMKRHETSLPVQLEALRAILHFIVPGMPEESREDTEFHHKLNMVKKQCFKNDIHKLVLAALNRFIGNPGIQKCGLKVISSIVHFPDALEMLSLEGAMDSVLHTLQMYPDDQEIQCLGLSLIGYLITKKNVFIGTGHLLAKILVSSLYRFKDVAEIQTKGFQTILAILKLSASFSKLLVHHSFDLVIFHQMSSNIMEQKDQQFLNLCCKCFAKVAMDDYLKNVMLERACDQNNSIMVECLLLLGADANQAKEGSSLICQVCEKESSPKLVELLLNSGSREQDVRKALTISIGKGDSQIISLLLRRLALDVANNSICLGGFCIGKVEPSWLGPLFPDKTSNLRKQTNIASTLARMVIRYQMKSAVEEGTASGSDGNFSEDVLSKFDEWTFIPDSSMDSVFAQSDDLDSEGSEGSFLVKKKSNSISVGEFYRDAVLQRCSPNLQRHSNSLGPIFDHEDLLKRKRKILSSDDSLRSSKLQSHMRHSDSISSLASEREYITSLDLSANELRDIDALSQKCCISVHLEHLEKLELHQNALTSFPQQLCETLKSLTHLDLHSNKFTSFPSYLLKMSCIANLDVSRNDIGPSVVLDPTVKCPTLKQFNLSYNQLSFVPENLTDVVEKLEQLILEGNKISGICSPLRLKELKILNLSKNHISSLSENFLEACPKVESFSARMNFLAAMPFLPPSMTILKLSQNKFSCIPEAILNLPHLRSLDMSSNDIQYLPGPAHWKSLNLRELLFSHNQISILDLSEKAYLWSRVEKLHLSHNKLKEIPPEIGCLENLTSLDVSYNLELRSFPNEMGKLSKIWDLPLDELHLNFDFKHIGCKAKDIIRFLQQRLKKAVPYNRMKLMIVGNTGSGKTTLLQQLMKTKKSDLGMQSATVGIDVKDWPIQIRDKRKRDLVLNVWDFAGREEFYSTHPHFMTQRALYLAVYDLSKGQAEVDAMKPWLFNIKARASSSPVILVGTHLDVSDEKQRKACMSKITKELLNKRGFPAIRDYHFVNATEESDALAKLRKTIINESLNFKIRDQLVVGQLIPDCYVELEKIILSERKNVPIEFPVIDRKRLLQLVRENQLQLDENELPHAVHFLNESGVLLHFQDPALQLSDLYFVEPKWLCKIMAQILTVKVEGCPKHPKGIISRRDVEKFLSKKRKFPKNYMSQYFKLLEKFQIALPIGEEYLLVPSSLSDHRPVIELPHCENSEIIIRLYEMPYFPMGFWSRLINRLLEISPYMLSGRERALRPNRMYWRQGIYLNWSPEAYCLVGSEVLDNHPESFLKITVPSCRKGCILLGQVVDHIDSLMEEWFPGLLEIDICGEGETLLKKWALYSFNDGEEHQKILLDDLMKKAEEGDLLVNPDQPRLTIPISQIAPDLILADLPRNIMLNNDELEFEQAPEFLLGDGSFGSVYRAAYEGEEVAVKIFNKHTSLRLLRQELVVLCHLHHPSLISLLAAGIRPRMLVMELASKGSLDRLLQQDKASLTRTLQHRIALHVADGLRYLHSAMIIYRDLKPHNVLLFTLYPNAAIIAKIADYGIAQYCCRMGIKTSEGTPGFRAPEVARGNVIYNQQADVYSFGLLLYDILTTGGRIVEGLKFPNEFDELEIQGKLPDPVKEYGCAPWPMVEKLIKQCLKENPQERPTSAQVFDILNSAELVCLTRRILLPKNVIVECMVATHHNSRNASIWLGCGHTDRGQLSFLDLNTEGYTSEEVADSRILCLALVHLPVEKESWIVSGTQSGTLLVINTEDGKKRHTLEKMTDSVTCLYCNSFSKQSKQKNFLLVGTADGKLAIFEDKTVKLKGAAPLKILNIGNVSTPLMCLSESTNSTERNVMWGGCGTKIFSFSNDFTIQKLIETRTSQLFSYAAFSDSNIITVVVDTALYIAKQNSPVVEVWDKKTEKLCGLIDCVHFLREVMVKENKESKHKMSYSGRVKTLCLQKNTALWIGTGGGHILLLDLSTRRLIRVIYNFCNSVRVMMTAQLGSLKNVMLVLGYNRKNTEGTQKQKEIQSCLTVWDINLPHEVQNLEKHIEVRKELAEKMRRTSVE
Strep-FLAG LRRK2ΔWD40: residues 1-2141 of Q5S007
UniProt Q5S006: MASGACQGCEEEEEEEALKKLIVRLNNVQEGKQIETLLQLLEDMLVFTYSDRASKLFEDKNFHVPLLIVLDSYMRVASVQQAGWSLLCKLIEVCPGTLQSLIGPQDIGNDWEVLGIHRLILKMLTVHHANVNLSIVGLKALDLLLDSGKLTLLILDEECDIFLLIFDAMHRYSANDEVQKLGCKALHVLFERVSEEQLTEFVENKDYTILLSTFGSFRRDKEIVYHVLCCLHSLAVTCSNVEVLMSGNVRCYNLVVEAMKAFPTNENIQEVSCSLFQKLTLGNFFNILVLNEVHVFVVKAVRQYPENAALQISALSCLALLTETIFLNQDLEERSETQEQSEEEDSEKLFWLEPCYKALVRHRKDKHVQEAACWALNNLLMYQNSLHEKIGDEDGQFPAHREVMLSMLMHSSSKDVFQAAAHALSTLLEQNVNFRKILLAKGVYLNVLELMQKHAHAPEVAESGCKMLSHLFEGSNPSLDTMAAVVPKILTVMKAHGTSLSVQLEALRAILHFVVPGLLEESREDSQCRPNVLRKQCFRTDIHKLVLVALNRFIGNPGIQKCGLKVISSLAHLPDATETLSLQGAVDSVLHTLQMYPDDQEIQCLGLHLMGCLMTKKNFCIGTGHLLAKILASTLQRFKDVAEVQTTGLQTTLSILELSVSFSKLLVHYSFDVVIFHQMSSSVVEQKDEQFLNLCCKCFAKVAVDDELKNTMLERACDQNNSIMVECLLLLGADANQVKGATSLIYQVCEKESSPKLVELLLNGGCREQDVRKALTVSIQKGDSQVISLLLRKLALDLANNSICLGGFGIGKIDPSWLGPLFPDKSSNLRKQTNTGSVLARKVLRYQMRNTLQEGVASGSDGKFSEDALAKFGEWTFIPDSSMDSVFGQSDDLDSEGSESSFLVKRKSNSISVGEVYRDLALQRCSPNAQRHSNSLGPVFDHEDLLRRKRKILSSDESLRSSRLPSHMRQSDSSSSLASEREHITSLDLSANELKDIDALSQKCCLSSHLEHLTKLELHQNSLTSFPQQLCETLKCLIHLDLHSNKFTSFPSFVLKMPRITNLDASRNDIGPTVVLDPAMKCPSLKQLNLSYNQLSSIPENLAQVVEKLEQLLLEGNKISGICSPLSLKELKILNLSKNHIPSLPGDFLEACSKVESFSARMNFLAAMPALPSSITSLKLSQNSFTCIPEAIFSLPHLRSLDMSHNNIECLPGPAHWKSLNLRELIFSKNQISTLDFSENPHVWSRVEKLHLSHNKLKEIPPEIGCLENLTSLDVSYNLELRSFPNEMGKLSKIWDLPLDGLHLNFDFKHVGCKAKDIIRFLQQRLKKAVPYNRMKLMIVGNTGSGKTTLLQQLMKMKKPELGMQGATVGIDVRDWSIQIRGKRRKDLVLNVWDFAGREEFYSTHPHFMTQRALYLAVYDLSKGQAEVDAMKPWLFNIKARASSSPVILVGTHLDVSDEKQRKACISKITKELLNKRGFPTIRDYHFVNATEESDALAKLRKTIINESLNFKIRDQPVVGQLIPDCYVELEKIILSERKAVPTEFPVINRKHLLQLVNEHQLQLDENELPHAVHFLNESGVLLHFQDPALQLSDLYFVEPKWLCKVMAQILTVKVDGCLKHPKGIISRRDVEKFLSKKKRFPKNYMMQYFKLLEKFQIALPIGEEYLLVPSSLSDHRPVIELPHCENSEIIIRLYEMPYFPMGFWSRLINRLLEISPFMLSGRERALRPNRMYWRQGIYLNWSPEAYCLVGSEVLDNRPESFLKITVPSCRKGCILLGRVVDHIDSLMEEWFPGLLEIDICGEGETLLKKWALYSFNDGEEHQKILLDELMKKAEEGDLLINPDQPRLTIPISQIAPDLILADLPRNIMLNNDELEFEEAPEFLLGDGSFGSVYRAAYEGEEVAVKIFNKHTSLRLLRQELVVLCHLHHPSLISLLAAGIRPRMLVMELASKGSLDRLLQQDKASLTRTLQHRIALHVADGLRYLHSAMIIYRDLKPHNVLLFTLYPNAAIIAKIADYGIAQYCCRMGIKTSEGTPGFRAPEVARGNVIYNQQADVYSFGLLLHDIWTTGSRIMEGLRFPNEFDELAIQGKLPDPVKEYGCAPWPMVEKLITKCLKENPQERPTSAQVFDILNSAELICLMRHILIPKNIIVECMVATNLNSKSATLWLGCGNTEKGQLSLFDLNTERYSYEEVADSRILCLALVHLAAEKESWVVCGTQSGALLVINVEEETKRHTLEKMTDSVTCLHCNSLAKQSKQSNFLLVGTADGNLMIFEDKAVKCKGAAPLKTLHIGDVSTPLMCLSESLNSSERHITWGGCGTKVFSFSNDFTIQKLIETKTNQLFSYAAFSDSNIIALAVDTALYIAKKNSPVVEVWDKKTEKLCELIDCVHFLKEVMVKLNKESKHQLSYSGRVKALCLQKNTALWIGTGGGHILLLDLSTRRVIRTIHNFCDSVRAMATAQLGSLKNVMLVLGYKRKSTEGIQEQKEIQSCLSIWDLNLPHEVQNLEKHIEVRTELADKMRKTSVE
UniProt P54285: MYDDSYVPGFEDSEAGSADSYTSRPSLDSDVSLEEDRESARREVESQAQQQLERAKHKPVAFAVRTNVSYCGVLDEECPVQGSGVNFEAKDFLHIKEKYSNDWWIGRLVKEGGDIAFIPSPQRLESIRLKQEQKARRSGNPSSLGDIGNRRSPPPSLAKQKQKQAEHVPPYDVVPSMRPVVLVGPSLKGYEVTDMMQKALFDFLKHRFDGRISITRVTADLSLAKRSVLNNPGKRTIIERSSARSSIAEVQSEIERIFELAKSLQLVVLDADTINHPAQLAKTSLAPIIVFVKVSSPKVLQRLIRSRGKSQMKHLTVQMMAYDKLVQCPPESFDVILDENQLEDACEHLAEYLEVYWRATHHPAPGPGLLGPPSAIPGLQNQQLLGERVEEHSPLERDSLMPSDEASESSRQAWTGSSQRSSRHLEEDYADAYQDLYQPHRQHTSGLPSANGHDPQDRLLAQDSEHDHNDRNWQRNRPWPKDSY

Assays:
[1] = molecular target: Strep-FLAG LRRK2 full-length wild-type (human) (UniProt Q5S007); assay: pull-down; Strep-FLAG LRRK2 variants over-expressed in N2A cells, 48 h after transfection, precipitated on Strep-Tactin Superflow resin 2 h at 4 °C; washes with 300 mM NaCl, 50 mM Tris-HCl pH 7.4; interacting proteins by western blot
[2] = molecular target: Strep-FLAG LRRK2 full-length G2385R (human) (UniProt Q5S007); assay: as above
[3] = molecular target: endogenous LRRK2 (Leucine-rich repeat kinase 2) (mouse (endogenous in mouse forebrain and mouse cortical neurons)) (UniProt Q5S006); assay: co-IP; endogenous LRRK2 precipitated from DIV14 mouse cortical cultures incubated with 2 or 10 mM CaCl2 for 30 minutes; rat anti-LRRK2 (LANK/24D8), protein G-Sepharose; western blot
[4] = molecular target: endogenous LRRK2 (Leucine-rich repeat kinase 2) (mouse (endogenous in mouse forebrain and mouse cortical neurons)) (UniProt Q5S006); assay: co-IP; endogenous LRRK2 precipitated from adult mouse forebrain lysate (1 mg protein; 150 mM NaCl, 2 mM EDTA, 50 mM Tris-HCl, 1% NP-40, 0.25% sodium deoxycholate, pH 7.4) with 4 µg rat anti-LRRK2 (LANK/24D8) and protein G-Sepharose; western blot
[5] = molecular target: Strep-FLAG LRRK2ΔWD40 (human) (UniProt Q5S007); assay: pull-down; Strep-FLAG LRRK2 variants over-expressed in N2A cells, 48 h after transfection, precipitated on Strep-Tactin Superflow resin 2 h at 4 °C; washes with 300 mM NaCl, 50 mM Tris-HCl pH 7.4; interacting proteins by western blot

binding [1] | binding [2] | binding [3] | binding [4] | binding [5] | Substance
binds | binds | binds | binds | – | synapsin I (from UniProt O88935 1-706)
binds | – | – | binds | binds | β3-CaV 2.1 channel subunit (from UniProt P54285 1-484)
